Data as given in publication PMC10353998 (2023).

Sequences of proteins named here, by UniProt entry; tags and fusion partners are left off.
UniProt O14646: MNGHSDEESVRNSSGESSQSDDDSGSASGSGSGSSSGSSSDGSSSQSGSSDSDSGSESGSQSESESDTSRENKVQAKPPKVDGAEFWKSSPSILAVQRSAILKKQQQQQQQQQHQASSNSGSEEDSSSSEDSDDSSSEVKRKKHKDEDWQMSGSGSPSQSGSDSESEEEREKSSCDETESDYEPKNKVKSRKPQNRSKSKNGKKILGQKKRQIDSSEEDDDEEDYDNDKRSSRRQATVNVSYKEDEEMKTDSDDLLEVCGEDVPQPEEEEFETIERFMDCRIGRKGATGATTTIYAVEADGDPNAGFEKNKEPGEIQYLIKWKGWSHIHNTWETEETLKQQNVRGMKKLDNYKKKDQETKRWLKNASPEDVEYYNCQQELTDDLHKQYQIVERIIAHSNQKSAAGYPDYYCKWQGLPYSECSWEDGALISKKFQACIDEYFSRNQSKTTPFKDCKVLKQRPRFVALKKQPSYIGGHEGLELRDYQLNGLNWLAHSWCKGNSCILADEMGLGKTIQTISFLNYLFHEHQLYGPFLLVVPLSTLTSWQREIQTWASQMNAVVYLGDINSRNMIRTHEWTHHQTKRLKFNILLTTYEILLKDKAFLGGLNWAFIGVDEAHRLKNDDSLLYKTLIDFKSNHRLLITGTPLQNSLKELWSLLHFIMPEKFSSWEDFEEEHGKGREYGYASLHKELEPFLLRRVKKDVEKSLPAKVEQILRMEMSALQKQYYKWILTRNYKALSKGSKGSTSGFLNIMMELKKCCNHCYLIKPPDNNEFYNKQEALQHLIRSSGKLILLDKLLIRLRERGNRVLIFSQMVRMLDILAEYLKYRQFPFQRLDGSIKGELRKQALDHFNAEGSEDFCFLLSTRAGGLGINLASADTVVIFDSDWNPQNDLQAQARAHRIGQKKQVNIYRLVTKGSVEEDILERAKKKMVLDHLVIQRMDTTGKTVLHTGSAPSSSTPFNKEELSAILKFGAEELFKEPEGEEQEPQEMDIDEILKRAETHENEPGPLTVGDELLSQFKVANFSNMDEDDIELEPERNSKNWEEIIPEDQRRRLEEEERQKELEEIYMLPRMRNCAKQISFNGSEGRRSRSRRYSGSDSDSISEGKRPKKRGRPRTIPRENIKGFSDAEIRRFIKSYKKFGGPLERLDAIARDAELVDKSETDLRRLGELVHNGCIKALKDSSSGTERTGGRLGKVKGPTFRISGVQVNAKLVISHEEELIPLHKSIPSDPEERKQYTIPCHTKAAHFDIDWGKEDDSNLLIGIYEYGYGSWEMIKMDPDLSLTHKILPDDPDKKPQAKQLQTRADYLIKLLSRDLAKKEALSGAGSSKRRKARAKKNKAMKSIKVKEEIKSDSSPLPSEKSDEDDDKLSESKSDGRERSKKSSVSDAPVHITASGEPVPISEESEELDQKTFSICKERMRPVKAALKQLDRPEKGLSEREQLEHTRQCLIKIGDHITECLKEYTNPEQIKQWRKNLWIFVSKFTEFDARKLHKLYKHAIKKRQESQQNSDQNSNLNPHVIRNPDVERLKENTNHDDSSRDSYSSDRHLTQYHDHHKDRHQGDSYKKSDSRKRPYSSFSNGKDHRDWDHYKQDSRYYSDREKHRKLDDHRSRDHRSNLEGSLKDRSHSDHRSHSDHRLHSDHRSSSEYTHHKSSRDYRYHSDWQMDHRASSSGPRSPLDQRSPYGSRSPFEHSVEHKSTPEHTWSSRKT
UniProt P38159: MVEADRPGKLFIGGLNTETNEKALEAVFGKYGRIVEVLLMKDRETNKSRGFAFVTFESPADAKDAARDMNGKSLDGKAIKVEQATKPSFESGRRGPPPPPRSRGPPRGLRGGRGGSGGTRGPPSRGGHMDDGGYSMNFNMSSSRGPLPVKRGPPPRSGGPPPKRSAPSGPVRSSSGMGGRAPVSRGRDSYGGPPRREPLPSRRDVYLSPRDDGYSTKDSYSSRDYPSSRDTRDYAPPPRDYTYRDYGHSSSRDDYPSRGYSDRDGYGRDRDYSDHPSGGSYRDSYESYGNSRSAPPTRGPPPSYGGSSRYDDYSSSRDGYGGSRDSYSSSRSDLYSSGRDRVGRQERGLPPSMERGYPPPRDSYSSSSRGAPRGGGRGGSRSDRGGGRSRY

T1: eGFP-GGSG-Flag-RBM20-R634Q (human) (UniProt Q5T481)
T1 sequence: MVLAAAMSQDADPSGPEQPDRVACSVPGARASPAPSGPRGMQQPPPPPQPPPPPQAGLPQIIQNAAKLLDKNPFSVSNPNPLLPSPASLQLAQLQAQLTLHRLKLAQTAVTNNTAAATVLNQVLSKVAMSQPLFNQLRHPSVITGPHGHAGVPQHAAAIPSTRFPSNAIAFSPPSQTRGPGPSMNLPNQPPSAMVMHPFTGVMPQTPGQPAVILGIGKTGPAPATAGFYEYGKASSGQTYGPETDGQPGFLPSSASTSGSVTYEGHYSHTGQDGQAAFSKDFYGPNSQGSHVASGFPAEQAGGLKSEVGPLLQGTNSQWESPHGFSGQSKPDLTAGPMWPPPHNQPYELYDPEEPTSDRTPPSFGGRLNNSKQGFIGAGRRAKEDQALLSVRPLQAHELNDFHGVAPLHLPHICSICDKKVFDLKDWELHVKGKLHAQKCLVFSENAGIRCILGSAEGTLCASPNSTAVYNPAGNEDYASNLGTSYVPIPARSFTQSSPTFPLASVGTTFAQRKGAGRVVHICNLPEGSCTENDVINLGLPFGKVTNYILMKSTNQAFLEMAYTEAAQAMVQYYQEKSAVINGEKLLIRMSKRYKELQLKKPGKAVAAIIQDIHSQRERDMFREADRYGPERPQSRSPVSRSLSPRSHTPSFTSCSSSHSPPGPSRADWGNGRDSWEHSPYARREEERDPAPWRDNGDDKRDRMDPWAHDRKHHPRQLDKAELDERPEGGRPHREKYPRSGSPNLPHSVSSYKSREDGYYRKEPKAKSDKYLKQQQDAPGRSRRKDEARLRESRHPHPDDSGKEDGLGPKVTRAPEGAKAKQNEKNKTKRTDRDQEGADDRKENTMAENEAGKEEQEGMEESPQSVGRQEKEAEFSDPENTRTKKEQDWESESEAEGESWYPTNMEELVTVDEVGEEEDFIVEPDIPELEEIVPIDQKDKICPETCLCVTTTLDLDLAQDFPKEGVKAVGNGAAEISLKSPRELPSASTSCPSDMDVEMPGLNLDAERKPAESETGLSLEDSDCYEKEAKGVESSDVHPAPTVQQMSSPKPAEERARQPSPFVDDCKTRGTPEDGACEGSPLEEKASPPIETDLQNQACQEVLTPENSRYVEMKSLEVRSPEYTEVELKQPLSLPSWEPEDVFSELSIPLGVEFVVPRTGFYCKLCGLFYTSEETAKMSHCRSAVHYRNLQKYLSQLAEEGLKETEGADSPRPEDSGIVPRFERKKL

T2: eGFP-GGSG-Flag-RBM20-WT (human) (UniProt Q5T481)
T2 sequence: T1 sequence with Q634R

B1: RBM15 (protein, UniProt Q96T37 1-977)
chain: MRTAGRDPVPRRSPRWRRAVPLCETSAGRRVTQLRGDDLRRPATMKGKERSPVKAKRSRGGEDSTSRGERSKKLGGSGGSNGSSSGKTDSGGGSRRSLHLDKSSSRGGSREYDTGGGSSSSRLHSYSSPSTKNSSGGGESRSSSRGGGGESRSSGAASSAPGGGDGAEYKTLKISELGSQLSDEAVEDGLFHEFKRFGDVSVKISHLSGSGSGDERVAFVNFRRPEDARAAKHARGRLVLYDRPLKIEAVYVSRRRSRSPLDKDTYPPSASVVGASVGGHRHPPGGGGGQRSLSPGGAALGYRDYRLQQLALGRLPPPPPPPLPRDLERERDYPFYERVRPAYSLEPRVGAGAGAAPFREVDEISPEDDQRANRTLFLGNLDITVTESDLRRAFDRFGVITEVDIKRPSRGQTSTYGFLKFENLDMSHRAKLAMSGKIIIRNPIKIGYGKATPTTRLWVGGLGPWVPLAALAREFDRFGTIRTIDYRKGDSWAYIQYESLDAAHAAWTHMRGFPLGGPDRRLRVDFADTEHRYQQQYLQPLPLTHYELVTDAFGHRAPDPLRGARDRTPPLLYRDRDRDLYPDSDWVPPPPPVRERSTRTAATSVPAYEPLDSLDRRRDGWSLDRDRGDRDLPSSRDQPRKRRLPEESGGRHLDRSPESDRPRKRHCAPSPDRSPELSSSRDRYNSDNDRSSRLLLERPSPIRDRRGSLEKSQGDKRDRKNSASAERDRKHRTTAPTEGKSPLKKEDRSDGSAPSTSTASSKLKSPSQKQDGGTAPVASASPKLCLAWQGMLLLKNSNFPSNMHLLQGDLQVASSLLVEGSTGGKVAQLKITQRLRLDQPKLDEVTRRIKVAGPNGYAILLAVPGSSDSRSSSSSAASDTATSTQRPLRNLVSYLKQKQAAGVISLPVGGNKDKENTGVLHAFPPCEFSQQFLDSPAKALAKSEEDYLVMIIVRGFGFQIGVRYENKKRENLALTLL
B2: MOV10 (protein, UniProt Q9HCE1 1-1003)
chain: MPSKFSCRQLREAGQCFESFLVVRGLDMETDRERLRTIYNRDFKISFGTPAPGFSSMLYGMKIANLAYVTKTRVRFFRLDRWADVRFPEKRRMKLGSDISKHHKSLLAKIFYDRAEYLHGKHGVDVEVQGPHEARDGQLLIRLDLNRKEVLTLRLRNGGTQSVTLTHLFPLCRTPQFAFYNEDQELPCPLGPGECYELHVHCKTSFVGYFPATVLWELLGPGESGSEGAGTFYIARFLAAVAHSPLAAQLKPMTPFKRTRITGNPVVTNRIEEGERPDRAKGYDLELSMALGTYYPPPRLRQLLPMLLQGTSIFTAPKEIAEIKAQLETALKWRNYEVKLRLLLHLEELQMEHDIRHYDLESVPMTWDPVDQNPRLLTLEVPGVTESRPSVLRGDHLFALLSSETHQEDPITYKGFVHKVELDRVKLSFSMSLLSRFVDGLTFKVNFTFNRQPLRVQHRALELTGRWLLWPMLFPVAPRDVPLLPSDVKLKLYDRSLESNPEQLQAMRHIVTGTTRPAPYIIFGPPGTGKTVTLVEAIKQVVKHLPKAHILACAPSNSGADLLCQRLRVHLPSSIYRLLAPSRDIRMVPEDIKPCCNWDAKKGEYVFPAKKKLQEYRVLITTLITAGRLVSAQFPIDHFTHIFIDEAGHCMEPESLVAIAGLMEVKETGDPGGQLVLAGDPRQLGPVLRSPLTQKHGLGYSLLERLLTYNSLYKKGPDGYDPQFITKLLRNYRSHPTILDIPNQLYYEGELQACADVVDRERFCRWAGLPRQGFPIIFHGVMGKDEREGNSPSFFNPEEAATVTSYLKLLLAPSSKKGKARLSPRSVGVISPYRKQVEKIRYCITKLDRELRGLDDIKDLKVGSVEEFQGQERSVILISTVRSSQSFVQLDLDFNLGFLKNPKRFNVAVTRAKALLIIVGNPLLLGHDPDWKVFLEFCKENGGYTGCPFPAKLDLQQGQNLLQGLSKLSPSTSGPHSHDYLPQEREGEGGLSLQVEPEWRNEL
B3: RBM14 (protein, UniProt Q96PK6 1-669)
chain: MKIFVGNVDGADTTPEELAALFAPYGTVMSCAVMKQFAFVHMRENAGALRAIEALHGHELRPGRALVVEMSRPRPLNTWKIFVGNVSAACTSQELRSLFERRGRVIECDVVKDYAFVHMEKEADAKAAIAQLNGKEVKGKRINVELSTKGQKKGPGLAVQSGDKTKKPGAGDTAFPGTGGFSATFDYQQAFGNSTGGFDGQARQPTPPFFGRDRSPLRRSPPRASYVAPLTAQPATYRAQPSVSLGAAYRAQPSASLGVGYRTQPMTAQAASYRAQPSVSLGAPYRGQLASPSSQSAAASSLGPYGGAQPSASALSSYGGQAAAASSLNSYGAQGSSLASYGNQPSSYGAQAASSYGVRAAASSYNTQGAASSLGSYGAQAASYGAQSAASSLAYGAQAASYNAQPSASYNAQSAPYAAQQAASYSSQPAAYVAQPATAAAYASQPAAYAAQATTPMAGSYGAQPVVQTQLNSYGAQASMGLSGSYGAQSAAAATGSYGAAAAYGAQPSATLAAPYRTQSSASLAASYAAQQHPQAAASYRGQPGNAYDGAGQPSAAYLSMSQGAVANANSTPPPYERTRLSPPRASYDDPYKKAVAMSKRYGSDRRLAELSDYRRLSESQLSFRRSPTKSSLDYRRLPDAHSDYARYSGSYNDYLRAAQMHSGYQRRM

What was measured:
[1] = biological target: T1, eGFP-GGSG-Flag-RBM20-R634Q (human); assay: affinity purification with mass spectrometry; GFP-Trap magnetic particles, 1 mg of cytoplasmic fraction of HeLa expressing eGFP-RBM20 (WT, P633L, R634Q, RSS), 4 °C 3 h; washes with 150 mM NaCl, 0.1% NP-40; TMT LC-MS/MS; hits against a no-bait control
[2] = biological target: T2, eGFP-GGSG-Flag-RBM20-WT (human); assay: affinity purification with mass spectrometry; GFP-Trap magnetic particles, 1 mg of nuclear and insoluble fraction of HeLa expressing eGFP-RBM20 (WT, P633L, R634Q, RSS), 4 °C 3 h; washes with 150 mM NaCl, 0.1% NP-40; TMT LC-MS/MS; hits against a no-bait control

Row | Molecule | binding [1] | binding [2]
1 | CHD1 (from UniProt O14646 1-1710) | no binding | 
2 | RBMX (from UniProt P38159 1-391) |  | binds
3 | B1 |  | binds
4 | B2 | binds | 
5 | B3 |  | binds

Substitutions are numbered along the chain they refer to. Results are given in words; binding and its absence hold for the method and conditions named. In cells and extracts the contact can be indirect. Here binding means that the protein was enriched with, or labelled near, the bait; the list need not be complete. For some assays here: A no says only that the protein was not detected with the bait. Tags and fused reporters may be left off the sequences shown.
